Source: the supplement of paper PMC9233669
Variants at the background level are over-represented here.

How the values were obtained:
biotinyl-Val-oxazolone = assay: self-aminoacylation, catalytic enhancement (BVO) (fold over background); higher = more active; k-Seq, kA / k0A0; sequences stand for … in GGGAAUGGAUCCACAUCUACGAAUUC…UUCACUGCAGACUUGACGAAGCUG
Procedure, shortened: (§1)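 Working in 50 μL HEPES/NaCl/KCl/MgCl2/CaCl2 buffer with 5% acetonitrile at pH 6.9–7.0, mutagenized RNA pools (0.43 μM; 21-nt variable region) were reacted with 2–1250 μM of each biotinyl-aminoacyl-oxazolone for 90 minutes at room temperature. Streptavidin capture followed, with quantification by triplicate qPCR and Illumina sequencing. Catalytic enhancement is reported as median kA over the uncatalyzed rate, the low-activity peak of a bimodal Gaussian fit to the data.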

biotinyl-Leu-oxazolone = assay: self-aminoacylation, catalytic enhancement (BLO) (fold over background); higher = more active; k-Seq, kA / k0A0; sequences stand for … in GGGAAUGGAUCCACAUCUACGAAUUC…UUCACUGCAGACUUGACGAAGCUG
Procedure, shortened: as §1

biotinyl-Met-oxazolone = assay: self-aminoacylation, catalytic enhancement (BMO) (fold over background); higher = more active; k-Seq, kA / k0A0; sequences stand for … in GGGAAUGGAUCCACAUCUACGAAUUC…UUCACUGCAGACUUGACGAAGCUG
Procedure, shortened: as §1

biotinyl-Ile-oxazolone = assay: self-aminoacylation, catalytic enhancement (BIO) (fold over background); higher = more active; k-Seq, kA / k0A0; sequences stand for … in GGGAAUGGAUCCACAUCUACGAAUUC…UUCACUGCAGACUUGACGAAGCUG
Procedure, shortened: as §1

| Sequence | self-aminoacylation (biotinyl-Val-oxazolone) | self-aminoacylation (biotinyl-Leu-oxazolone) | self-aminoacylation (biotinyl-Met-oxazolone) | self-aminoacylation (biotinyl-Ile-oxazolone) |
| --- | --- | --- | --- | --- |
| AACAUUGCUAAUAGUCGCAAG [Fam3.1 aminoacylation ribozyme variant] | 1.7 | 1.87 | 1.63 |  |
| AACUUUGCAAAUAGUCGCAAG [Fam3.1 aminoacylation ribozyme variant] | 1.94 | 2.8 | 1.96 | 2.3 |
| AACUUUGCUAAUAGUAGCAAG [Fam3.1 aminoacylation ribozyme variant] | 1.67 | 1.76 | 2.2 | 1.77 |
| AAGUAUGCUAAUAGUCGCAAG [Fam3.1 aminoacylation ribozyme variant] | 1.42 | 1.38 | 1.72 | 1.67 |
| AAGUAUGCUAAUCGUCGCAAG [Fam3.1 aminoacylation ribozyme variant] | 1.56 | 1.37 | 1.71 | 1.81 |
| AAGUCUGCUAAUAGUCGUAAG [Fam3.1 aminoacylation ribozyme variant] | 1.46 | 1.67 | 2.5 | 1.6 |
| AAGUGUGCUAAAAGUCGCAAG [Fam3.1 aminoacylation ribozyme variant] | 1.73 | 1.19 | 1.66 | 1.53 |
| AAGUGUGCUAACAGUCGCAAG [Fam3.1 aminoacylation ribozyme variant] | 1.64 | 1.58 | 1.35 | 1.59 |
| AAGUUGGCUAAUAGUCGCAAG [Fam3.1 aminoacylation ribozyme variant] | 1.55 | 1.57 | 1.55 | 1.7 |
| AAGUUGGCUUAUAGUCGCAAG [Fam3.1 aminoacylation ribozyme variant] | 1.61 | 1.64 | 1.94 | 1.59 |
| AAGUUUACUAAUAGUCGCAAU [Fam3.1 aminoacylation ribozyme variant] | 1.6 | 1.42 | 1.48 | 1.86 |
| AAGUUUCCUAAUAGUCACAAG [Fam3.1 aminoacylation ribozyme variant] | 1.61 | 1.64 | 1.77 | 1.8 |
| AAGUUUGCUAAUAGUCCCAAG [Fam3.1 aminoacylation ribozyme variant] | 0.938 | 0.852 | 0.941 | 1.01 |
| AAGUUUGCUAAUAGUCGCCGG [Fam3.1 aminoacylation ribozyme variant] | 4.14 | 3.53 | 5.01 | 3.08 |
| AAGUUUGCUAAUGGUCGCAAA [Fam3.1 aminoacylation ribozyme variant] | 1.19 | 1.25 | 1.24 | 1.39 |
| AAGUUUGUUAAUAGUCGCAAA [Fam3.1 aminoacylation ribozyme variant] | 1.32 | 1.68 | 1.63 | 1.8 |
| AAGUUUUCUAAAAGUCGCAAG [Fam3.1 aminoacylation ribozyme variant] | 1.42 | 1.65 | 1.86 | 1.69 |
| AAUACCCUGGUCAUCGAGUGC [Fam2.1 aminoacylation ribozyme variant] | 1.3 | 1.55 | 1.19 | 1.02 |
| AAUUUUGCUAAUAGUCGCAAG [Fam3.1 aminoacylation ribozyme variant] | 1.55 | 1.64 | 1.66 | 1.84 |
| AAUUUUGCUGAUAGUCGCAAG [Fam3.1 aminoacylation ribozyme variant] | 1.76 | 1.5 | 1.7 | 1.93 |
| ACAAACUUCAAGCAAUCGGUC [Fam1B.1 aminoacylation ribozyme variant] | 1.47 | 1.51 | 1.41 | 1.61 |
| ACACACUUCAAGUAAUCGGUC [Fam1B.1 aminoacylation ribozyme variant] | 1.23 | 1.68 | 1.34 | 1.56 |
| ACGUUUGCUAAUAGUCGCCAG [Fam3.1 aminoacylation ribozyme variant] | 1.61 | 1.94 |  | 1.85 |
| ACUCACUUCAAGCAAUCGGUC [Fam1B.1 aminoacylation ribozyme variant] | 1.15 | 1.07 | 0.902 | 1.03 |
| AGGUUUGCUAAGAGUCGCAAG [Fam3.1 aminoacylation ribozyme variant] | 1.02 | 1.02 | 1.15 | 1.12 |

| Sequence | self-aminoacylation (biotinyl-Val-oxazolone) | self-aminoacylation (biotinyl-Leu-oxazolone) | self-aminoacylation (biotinyl-Met-oxazolone) | self-aminoacylation (biotinyl-Ile-oxazolone) |
| --- | --- | --- | --- | --- |
| AGUACCGUGGUCAUCGAGUGA [Fam2.1 aminoacylation ribozyme variant] | 3.39 | 5.87 | 5.19 | 3.61 |
| AUACUUCAAACAAUCGGUCUG [Fam1A.1 aminoacylation ribozyme variant] | 0.914 | 1.1 | 0.939 | 0.933 |
| AUACUUCAAACAAUCGGUCUU [Fam1A.1 aminoacylation ribozyme variant] | 0.813 | 1.07 | 0.754 | 0.87 |
| AUGCACCUAGGUCAUUGGGUG [Fam2.2 aminoacylation ribozyme variant] | 2.16 | 2.53 | 2.3 | 2.33 |
| AUUACCCAGCUCAUCGAGUGA [Fam2.1 aminoacylation ribozyme variant] | 1.56 | 1.52 | 1.54 | 1.47 |
| AUUACCCUAGUCAUCGGGUGA [Fam2.1 aminoacylation ribozyme variant] | 4.8 | 8.62 | 7.55 | 4.76 |
| AUUACCCUGGCCAUCGAGUAA [Fam2.1 aminoacylation ribozyme variant] | 1.46 | 1.87 | 1.46 | 1.14 |
| AUUACCCUGGUCAUAGAGAGA [Fam2.1 aminoacylation ribozyme variant] | 0.717 | 0.798 | 0.983 | 0.947 |
| AUUACCCUGGUCUUCAAGUGA [Fam2.1 aminoacylation ribozyme variant] | 2.67 | 4.28 | 4.91 | 2.76 |
| AUUACCCUGGUUAGCGAGUGA [Fam2.1 aminoacylation ribozyme variant] | 2.1 | 4.28 | 4.21 | 2.2 |
| AUUACCCUUGUCAUCGAGUAA [Fam2.1 aminoacylation ribozyme variant] | 1.13 | 1.22 | 1.36 | 1.19 |
| AUUACCGCGGUCAUCGAGUGA [Fam2.1 aminoacylation ribozyme variant] | 3.11 | 6.47 | 5.86 | 3.36 |
| AUUACCGUGGUCAUCAAGUGA [Fam2.1 aminoacylation ribozyme variant] | 1.99 | 3.05 | 2.83 | 1.95 |
| AUUACCGUUGUCAUCGAGUGA [Fam2.1 aminoacylation ribozyme variant] | 4.16 | 8.01 | 7.75 | 4.49 |
| AUUACCUUGGUCAUCGGGUGA [Fam2.1 aminoacylation ribozyme variant] | 6.05 | 10.6 | 9.54 | 5.69 |
| AUUACUCUCGUCAUCGAGUGA [Fam2.1 aminoacylation ribozyme variant] | 2.09 | 3.39 | 2.92 | 2.11 |
| AUUAUCCUGGUCAUCGACUGA [Fam2.1 aminoacylation ribozyme variant] | 0.785 | 0.941 | 0.65 | 0.875 |
| AUUCACAUAAGUCAUCGGGUG [Fam2.2 aminoacylation ribozyme variant] | 6.79 | 18.3 | 11.8 | 7.61 |
| AUUCACCUACGUGAUCGGGUG [Fam2.2 aminoacylation ribozyme variant] | 2 | 3.64 | 2.81 | 2.19 |
| AUUCACCUAUUUCAUCGGGUG [Fam2.2 aminoacylation ribozyme variant] | 2.02 | 3.49 | 2.93 | 1.85 |
| CCACACUUCAAGCAAUCGGCC [Fam1B.1 aminoacylation ribozyme variant] |  | 1.63 | 1.75 | 1.65 |
| CCACACUUCAAGCCAUCGGUU [Fam1B.1 aminoacylation ribozyme variant] |  | 1.86 | 1.86 | 1.59 |
| CCCCAUUUCAAGCAAUCGGUC [Fam1B.1 aminoacylation ribozyme variant] |  | 1.74 | 1.95 |  |
| CCGCACCUCAAGCAAUCGGUC [Fam1B.1 aminoacylation ribozyme variant] |  | 1.26 | 1.24 | 1.19 |
